# From patent publication EP0382538A2 (MERCK & CO. INC., priority 1989, dated 1990)
# “And” between values parts separate entries of the source, which are not always exact repeats. Equal values may be shown once.
# Experiment: general procedure: Boc solid-phase peptide synthesis; Boc-Thr(Bzl)-O-PAM resin (0.72 mM/g); symmetric anhydrides; HOBt esters for Arg(Tos), Asn, His(Bom); double coupling
# Conditions: whole synthesis, several disulfide bridges, sequence written open
substance,measurement,setting,value
NH₂-Glu-Cys-Glu-Ser-Gly-Pro-Cys-Cys-Arg-Asn-Cys-Lys-Phe-Leu-Lys-Glu-Gly-Thr-Ile-Cys-Lys-Arg-Ala-Arg-Gly-Asp-Asp-Met-Asp-Asp-Tyr-Cys-Asn-Gly-Lys-Thr-Cys-Asp-Cys-Pro-Arg-Asn-Pro-His-Lys-Gly-Pro-Ala-Thr-OH,final HPLC purity,analytical RP-HPLC (Vydac C18),>95%
same,isolated yield,"based on 0.25 mM of starting resin, overall",4 percent overall yield
same,difficulty met,,additional couplings of Arg⁹ and Arg²² were performed four times and Ile¹⁹ three times
same,isolated mass,run 1,72 mg and 54 mg
